The target of the assay is EBOV GP (Ebola virus (EBOV)) (UniProt Q05320). The assay is described as follows: ELISA screen, EBOV GP coated at 1 μg/mL, transfected 293T supernatant. A general note: In an ELISA, binding on a coated surface is turned into a signal by an enzyme label.

By UniProt entry, the sequences of proteins in these tests, tags left out. Residues count along the entry.
UniProt Q05320, residues 33-650: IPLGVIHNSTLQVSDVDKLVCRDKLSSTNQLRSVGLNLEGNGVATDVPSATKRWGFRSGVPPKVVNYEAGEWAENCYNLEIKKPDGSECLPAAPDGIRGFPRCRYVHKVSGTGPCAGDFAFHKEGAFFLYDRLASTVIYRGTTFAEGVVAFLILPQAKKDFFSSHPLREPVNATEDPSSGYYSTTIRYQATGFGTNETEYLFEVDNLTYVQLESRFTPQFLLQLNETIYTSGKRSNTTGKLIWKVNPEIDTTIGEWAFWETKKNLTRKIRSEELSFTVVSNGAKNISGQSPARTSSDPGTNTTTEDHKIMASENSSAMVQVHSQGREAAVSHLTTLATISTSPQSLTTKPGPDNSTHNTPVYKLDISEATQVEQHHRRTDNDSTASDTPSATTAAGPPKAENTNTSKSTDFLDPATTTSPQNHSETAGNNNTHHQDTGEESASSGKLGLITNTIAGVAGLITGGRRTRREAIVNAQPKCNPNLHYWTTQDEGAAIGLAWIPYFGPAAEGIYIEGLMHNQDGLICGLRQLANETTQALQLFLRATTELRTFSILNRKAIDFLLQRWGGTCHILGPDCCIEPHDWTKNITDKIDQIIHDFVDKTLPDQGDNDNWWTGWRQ

The values that follow come from patent CN111138528A.

Results are given in words; binding and its absence hold for the method and conditions named. Some binding calls cover weakened binding; strength is not graded here.

B1: 单克隆抗体5A8 (antibody, V domains shown)
VH: EVQLLESGGGLVKPGGSLRLSCAASGFTFSDYYMNWIRQAPGKGLEWVSYISSSGKTIYYADSVKGRFTISRDNAKKSLYLQMNSLRAEDTAVYYCARDREIVISTTILLGSDHYAMDVWGQGTTVTVSS
VL: DIQMTQSPFTLSASVGDRVTITCRASQSINSYLNWYQQKPGKAPKLLIYSASSLQSGVPSRFSGSGSGTDFTLTISSLQPEDFAIYYCQQTYRTPYTFGQGTKVEIKT
For B1, the binding entry is recorded as “binds”.
